Out of some 320,000 compounds screened, about 22,000 (6.9%) were called active. The shares of active, inactive and inconclusive entries below differ from those in the screen. Calls come from the whole dose curve; as a rule, active = well fitted inhibition curve with a large enough effect; inconclusive = small, poorly fitted or top-dose-only effect, or another doubt; inactive = no such curve, though single readings can be large or run the other way. A potency beside an inconclusive call is a rough fit, not a confirmed value.
assay: Primary qHTS for delayed death inhibitors of the malarial parasite plastid, 96 hour incubation; conditions: P. falciparum luciferase reporter growth; series mostly up to 28.7 µM; activity change, negative = inhibition: at the top concentration
Summary of the method: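 P. falciparum expressing integrated firefly luciferase, in erythrocytes at 2% hematocrit, 0.05% parasitemia, incubated with compounds 96 h at 37 C, 5% CO2. Growth inhibition read as loss of luminescence; two-generation exposure targets delayed-death apicoplast inhibitors.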
% is set by controls: 0 for no effect and ±100 for the full control effect; potency is the fitted concentration of half-maximal effect.

Compound	Potency	activity change, negative = inhibition
CCOc1ccc(C(=O)NCC2CCN(CC3CCCCC3)CC2)cc1	active: 5.86 µM	–
O=C(Nc1ccc(N2CCOCC2)cc1N1CCOCC1)c1ccco1	inconclusive: 8.28 µM [inhibitor, partial curve, poor fit]	–
COc1cccc(-c2nc3ccc(C(=O)NC(C)Cc4cccnc4)cc3o2)c1 (configuration not stated)	–	inactive: 16.9%
S=c1[nH]nc(C2CCCCC2)n1/N=C/c1ccc(Cl)cc1	inconclusive: 18.5 µM [inhibitor, single point]	–
COc1cc2c(cc1OC)C(C(=O)Nc1ccccn1)C(c1cccnc1)N(C)C2=O (configuration not stated)	active: 1.65 µM	–
COc1ccc(N2CC(C(=O)NNC(=O)c3ccc(Br)cc3)CC2=O)c(OC)c1 (configuration not stated)	–	inactive: -1.26%
COc1ccc(OC)c(C(=O)N2CCC(CCC(=O)NC3CC3)CC2)c1	inconclusive: 20.8 µM [inhibitor, partial curve, poor fit]	–
CC(C)(C)c1csc(Sc2ncccc2[N+](=O)[O-])n1	–	inactive: -3.69%
COc1cc(CNC(=O)c2ccccc2NC(=O)C2=C(C)OCCS2)cc(OC)c1OC	inconclusive: 16.5 µM [inhibitor, single point]	–
O=C(Nc1cccc(Cl)c1)c1nc[nH]c1C(=O)N1CCc2ccccc2C1	inconclusive: 16.5 µM [inhibitor, single point]	–
Cc1ccc(NCc2ccc(O)c3ncccc23)cc1C	inconclusive: 8.28 µM [inhibitor, partial curve, poor fit]	–
CCC1=C(OC(=O)N(CC)CC)N2C(=O)OC(=NCCc3c[nH]c4ccccc34)[C@]2(C)[C@H]2C1=CC[C@H]1C(=O)N(CC)C(=O)[C@H]12	inconclusive: 10.4 µM [inhibitor, single point]	–
Cc1ccccc1N1CCN(C(=O)c2ccc(Oc3ccc(C(F)(F)F)cn3)cc2)CC1	active: 13.1 µM	–
Cc1nc(NC(=O)CSc2nnc(-c3ccccc3)c(-c3ccccc3)n2)c(Cl)cc1Cl	inconclusive: 6.57 µM [inhibitor, partial curve, poor fit]	–
CCOc1ccc(NC(=O)C2C3CC/C=C\CCC32)cc1 (configuration not stated)	inconclusive: 10.4 µM [inhibitor, partial curve, poor fit]	–
Cc1oc(-c2ccc(Cl)cc2)nc1CS(=O)CC(=O)NCc1ccccn1 (configuration not stated)	inconclusive: 18.5 µM [inhibitor, single point]	–
CC(C)C[C@@]12C(=O)N(c3cccc(F)c3)C(=O)N1[C@H](c1ccc(F)cc1)[C@@H]1C(=O)N(C3CCCCC3)C(=O)[C@@H]12	inconclusive: 10.4 µM [inhibitor, single point]	–

An excerpt of these results, in markdown:

| Compound | Potency | activity change, negative = inhibition |
| --- | --- | --- |
| COc1ccc(OC)c(C(=O)N2CCC(CCC(=O)NC3CC3)CC2)c1 | inconclusive: 20.8 µM [inhibitor, partial curve, poor fit] | – |
| CC(C)(C)c1csc(Sc2ncccc2[N+](=O)[O-])n1 | – | inactive: -3.69% |
| COc1cc(CNC(=O)c2ccccc2NC(=O)C2=C(C)OCCS2)cc(OC)c1OC | inconclusive: 16.5 µM [inhibitor, single point] | – |
| O=C(Nc1cccc(Cl)c1)c1nc[nH]c1C(=O)N1CCc2ccccc2C1 | inconclusive: 16.5 µM [inhibitor, single point] | – |

Source: PubChem BioAssay AID504834 (National Center for Advancing Translational Sciences (NCATS), 2011)
